# Changes are numbered by the printed parent chain. These are yes or no findings as the source states them, for the method shown. In cells and extracts the contact can be indirect. Some binding calls cover weakened binding; strength is not graded here. Where a sequence is shown, tags or fusion partners need not be part of it.
# Chains of the proteins cited; added tags and fusions are not shown.
# UniProt Q13547: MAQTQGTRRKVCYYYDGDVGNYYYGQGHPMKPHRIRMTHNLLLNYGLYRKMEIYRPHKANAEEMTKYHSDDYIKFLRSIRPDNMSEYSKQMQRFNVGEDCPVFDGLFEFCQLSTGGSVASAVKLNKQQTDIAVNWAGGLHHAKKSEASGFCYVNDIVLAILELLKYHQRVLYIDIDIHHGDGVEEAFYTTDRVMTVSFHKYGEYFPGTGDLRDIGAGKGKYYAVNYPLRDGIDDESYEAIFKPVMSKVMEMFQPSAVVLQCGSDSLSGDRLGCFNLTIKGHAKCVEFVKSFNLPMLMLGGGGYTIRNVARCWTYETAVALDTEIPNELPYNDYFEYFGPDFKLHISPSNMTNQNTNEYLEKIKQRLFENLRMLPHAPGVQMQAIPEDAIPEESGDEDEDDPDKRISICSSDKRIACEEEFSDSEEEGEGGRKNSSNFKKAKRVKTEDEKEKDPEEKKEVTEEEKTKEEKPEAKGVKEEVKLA
# Assays:
# [1] = biological target: T1, GST-SALL1 fusion protein, wild type SALL1 (2-137) (UniProt Q9NSC2); assay: pull-down; GST-SALL1 fusions expressed in MCF-7 cells for 48-72 h; lysis buffer 1% Triton X-100, 200 mM sucrose, 50 mM Tris pH 7.4, sonication; 50 ug of total protein precipitated with glutathione-Sepharose beads for 2 h at 4 °C; western blot for endogenous NuRD components
# T1 sequence: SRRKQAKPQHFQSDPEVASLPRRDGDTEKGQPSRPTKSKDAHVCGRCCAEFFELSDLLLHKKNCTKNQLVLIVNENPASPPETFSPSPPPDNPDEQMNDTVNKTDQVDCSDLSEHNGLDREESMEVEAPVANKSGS
# [2] = biological target: T2, GST-SALL1-S2A fusion protein, SALL1 (2-137) (UniProt Q9NSC2); assay: as above
# T2 sequence: T1 sequence with S1A
substance,measurement,setting,value
HDAC1 (from UniProt Q13547 1-482),binding,[1],binds
same,binding,[2],binds
